Assay results reported in PubChem BioAssay (NCATS).
The inconclusive results got no clear call from the source; some entries with a clear call stand among them for comparison. Where the call is inconclusive, the potency comes from a doubtful curve fit. Activity calls are given as the source filed them. Calls follow the shape of the dose curve; as a rule, active = well fitted cell-killing curve with a large enough effect; inconclusive = small, poorly fitted or top-dose-only effect, or effect the other way; inactive = no such curve, though single readings can be large or run the other way.

Experiments:
[1] = Quantitative High-Throughput drug screen in 47 multiple myeloma cell lines against the NCATS MIPE library collection: FR4_PLB cell viability assay (AID 1918924; also: nearly all actives have a fitted effect of over 35% in size); settings: FR4_PLB myeloma cells viability, CellTiter-Glo ATP, 48 h; series mostly up to 45.8 µM
Method in brief: (§1)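 Steps: seed 500 cells per well; pin-transfer MIPE 4.0 library; incubate 48 h at 37C, 5% CO2, humidified; add CellTiter-Glo, 5 min room temperature; read luminescence.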

[2] = Quantitative High-Throughput drug screen in 47 multiple myeloma cell lines against the NCATS MIPE library collection: Delta47_JCRB cell viability assay (AID 1918925; also: nearly all actives have a fitted effect of over 45% in size); settings: Delta47 myeloma viability, CellTiter-Glo ATP, 48 h; viability (% of DMSO): at 45.8 µM (top of the series)
Method in brief: (§2)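 Luminescent ATP measurement with CellTiter-Glo gives viability, scaled between DMSO-only wells (100%) and media-only wells (0%). Cells, 500 per well, faced library compounds for 48 hours at 37C.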

[3] = Quantitative High-Throughput drug screen in 47 multiple myeloma cell lines against the NCATS MIPE library collection: AMO1_DSMZ cell viability assay (AID 1918927; also: nearly all actives have a fitted effect of over 30% in size); settings: AMO1 myeloma cells viability, CellTiter-Glo ATP luminescence, 48 h; viability, % of DMSO: at 45.8 µM (top of the series)
Method in brief: as §2

[4] = Quantitative High-Throughput drug screen in 47 multiple myeloma cell lines against the NCATS MIPE library collection: ARP1_JJKsccF8 cell viability assay (AID 1918928; also: nearly all actives have a fitted effect of over 40% in size); settings: ARP1 myeloma cells viability, CellTiter-Glo ATP, 48 h; viability: at 45.8 µM (top of the series)
Method in brief: (§3)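 CellTiter-Glo luminescence after 48 h exposure gives viability, scaled between DMSO-only (100%) and media-only (0%) controls. Library compounds are pinned onto 500 myeloma cells per well, incubated at 37C with 5% CO2.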

[5] = Quantitative High-Throughput drug screen in 47 multiple myeloma cell lines against the NCATS MIPE library collection: EJM_DSMZ cell viability assay (AID 1918926; also: nearly all actives have a fitted effect of over 30% in size); settings: EJM myeloma cell viability, CellTiter-Glo ATP, 48 h; series mostly up to 45.8 µM
Method in brief: as §2

[6] = Quantitative High-Throughput drug screen in 47 multiple myeloma cell lines against the NCATS MIPE library collection: ARD_JJKsccE7 cell viability assay (AID 1918929); settings: ARD myeloma cell line viability, CellTiter-Glo, 48 h; viability: at 45.8 µM (top of the series)
Method in brief: as §2

[7] = Quantitative High-Throughput drug screen in 47 multiple myeloma cell lines against the NCATS MIPE library collection: KMM1_JCRB cell viability assay (AID 1918960); settings: KMM1 myeloma viability, CellTiter-Glo ATP luminescence, 48 h; viability (% of DMSO): at 45.8 µM (top of the series); also: nearly all actives have a fitted effect of over 30% in size;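 as to viability (% of DMSO): 100% = DMSO-treated cells and 0% = medium-only wells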
Method in brief: as §3

[8] = Quantitative High-Throughput drug screen in 47 multiple myeloma cell lines against the NCATS MIPE library collection: Karpas620_DSMZ cell viability assay (AID 1918959); settings: Karpas620 myeloma viability, CellTiter-Glo ATP luminescence, 48 h; series mostly up to 45.8 µM; also: nearly all actives have a fitted effect of over 30% in size
Method in brief: as §1
Potency is read from the fitted curve at half-maximal effect.

Row | Structure (SMILES) | Potency [1] | Potency [2] | Potency [3] | Potency [4] | Potency [5] | Potency [6] | Potency [7] | Potency [8] | viability, % of DMSO [3]
1 | Cc1cccc(C)c1NC(=O)CN1CCCC1=O | inconclusive: 5900 nM [cytotoxic, partial curve, poor fit] | inactive | inconclusive: 59 nM [cytotoxic, partial curve, poor fit] | inactive | – | – | – | – | –
2 | O=c1[nH]c2ccccc2n1CCCN1CCC(n2c(=O)[nH]c3cc(Cl)ccc32)CC1 | inactive | inconclusive: 29600 nM [cytotoxic, single point] | inconclusive: 18700 nM [cytotoxic, partial curve, poor fit] | inconclusive: 20900 nM [cytotoxic, partial curve, poor fit] | inconclusive: 11800 nM [cytotoxic, partial curve, poor fit] | inconclusive: 743 nM [cytotoxic, full curve] | inconclusive: 372 nM [cytotoxic, full curve, poor fit] | – | –
3 | C[C@](O)(CS(=O)(=O)c1ccc(F)cc1)C(=O)Nc1ccc(C#N)c(C(F)(F)F)c1 | active: 14800 nM | active: 372 nM | – | – | active: 372 nM | – | active: 8330 nM | inconclusive: 20900 nM [cytotoxic, partial curve] | –
4 | CC(C)CC(N(C)C)C1(c2ccc(Cl)cc2)CCC1 (stereo not given) | inconclusive: 105 nM [cytotoxic, full curve, poor fit] | inconclusive: 1180 nM [cytotoxic, full curve, poor fit] | – | – | inconclusive: 4180 nM [cytotoxic, partial curve, poor fit] | – | inactive | – | –
5 | CC(O)=C(C#N)C(=O)Nc1cc(Br)ccc1Br | inconclusive: 3720 nM [cytotoxic, partial curve, poor fit] | inactive | inconclusive: 148 nM [cytotoxic, full curve, poor fit] | inconclusive: 1180 nM [cytotoxic, full curve, poor fit] | – | inconclusive: 1870 nM [cytotoxic, partial curve, poor fit] | – | active: 5260 nM | –
6 | CNCC(O)c1ccc(O)cc1 (stereo not given) | inactive | inactive | inactive | – | inactive | – | inconclusive: 5260 nM [cytotoxic, partial curve] | – | –
7 | C[C@@H]1[C@@H](C(=O)C[C@H]2O[C@@H]3O[C@]4(C)CC[C@@H]5[C@H](C)CC[C@@H]([C@H]2C)[C@@]35OO4)O[C@@H]2O[C@]3(C)CC[C@H]4[C@H](C)CC[C@@H]1[C@@]24OO3 | inconclusive: 418 nM [cytotoxic, full curve] | active: 235 nM | – | active: 132 nM | inconclusive: 526 nM [cytotoxic, full curve] | – | – | active: 41.8 nM | –
8 | O=C1C=CC[C@@H]2[C@H]3CCCN4CCC[C@@H](CN12)[C@@H]34 | active: 11800 nM | inconclusive: 296 nM [cytotoxic, full curve, poor fit] | inactive | inactive | inactive | inconclusive: 3 nM [cytotoxic, full curve, poor fit] | – | – | –
9 | O=C(N[C@H]1CN2CCC1CC2)c1ccc(Cl)cc1 | inactive | inconclusive: 18700 nM [cytotoxic, partial curve] | inconclusive: 14800 nM [cytotoxic, partial curve, poor fit] | inconclusive: 118 nM [rising, full curve, poor fit] | inactive | – | – | – | –
10 | C[C@]12CC[C@H]3[C@@H](CC[C@@]45O[C@H]4C(O)=C(C#N)C[C@]35C)[C@H]1CC[C@H]2O | inconclusive: 1.2 nM [rising, full curve] | inconclusive: 13200 nM [cytotoxic, partial curve, poor fit] | inactive | – | inactive | inconclusive: 5.3 nM [rising, full curve, poor fit] | inactive | – | –
11 | O=C1CC[C@@]2(O)[C@H]3Cc4ccc(O)c5c4[C@@]2(CCN3CC2CC2)[C@H]1O5 | inactive | inconclusive: 3320 nM [cytotoxic, partial curve, poor fit] | – | inactive | inconclusive: 1.9 nM [cytotoxic, full curve, poor fit] | inactive | inactive | inactive | inconclusive: 112% [cytotoxic]
12 | CC1=C2C[C@@H]3[C@@H](CC=C4C[C@@H](O)CC[C@@]43C)[C@@H]2CC[C@]12O[C@H]1C[C@H](C)CN[C@H]1[C@H]2C | active: 10500 nM | inconclusive: 4690 nM [cytotoxic, full curve, poor fit] | inactive | inactive | – | – | – | – | –
